Data source: PubChem BioAssay AID1224830 (NIAID, 2016)

Aim: 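Host factors that control LPS-induced TNF expression in human macrophages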 (primary screen)
Cells: human THP-1 monocytic leukaemia cells, TNF dual-luciferase reporter clone, PMA-differentiated to macrophage-like cells
Knock-down reagent: siRNA pool against human genes, 50 nM
Duration: LPS for 4 h, given about 3 days after siRNA transfection
Treatment: bacterial LPS (TLR4 ligand), 10 ng/ml
Read-out: 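TNF firefly reporter luminescence divided by renilla, normalised to the plate median, then turned into a robust z-score for each replicate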
Scale: TNF reporter robust z-score: higher = stronger TNF reporter response to LPS
Active means: 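a well is active when its z-score exceeds 2.8 or falls below -1.5; control wells carry no call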
In all, the deposit lists about 18,000 reagents; this is a random part of them. About 2,900 of all reagents (16%) count as active. 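Calls are made per well; low scores hint the gene aids the LPS response, high scores that it dampens it.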 Repeated entries: four replicate wells of each siRNA pool.

| target | PubChem SID | TNF reporter robust z-score | Outcome |
| --- | --- | --- | --- |
| SCAND1 (SCAN domain containing 1) | SID315456608 | 1.18 | inactive |
| SCAND1 (SCAN domain containing 1) | SID315456608 | 2.28 | inactive |
| SCAND1 (SCAN domain containing 1) | SID315456608 | 1.97 | inactive |
| SCAND1 (SCAN domain containing 1) | SID315456608 | 2.34 | inactive |
| GZMB (granzyme B) | SID315449126 | 1.2 | inactive |
| GZMB (granzyme B) | SID315449126 | 0.31 | inactive |
| GZMB (granzyme B) | SID315449126 | 0.01 | inactive |
| GZMB (granzyme B) | SID315449126 | 1.1 | inactive |
| IKZF5 (IKAROS family zinc finger 5) | SID315458903 | -0.21 | inactive |
| IKZF5 (IKAROS family zinc finger 5) | SID315458903 | 0.09 | inactive |
| IKZF5 (IKAROS family zinc finger 5) | SID315458903 | 0.03 | inactive |
| IKZF5 (IKAROS family zinc finger 5) | SID315458903 | -0.22 | inactive |
| LBP (lipopolysaccharide binding protein) | SID315449736 | -0.82 | inactive |
| LBP (lipopolysaccharide binding protein) | SID315449736 | -0.01 | inactive |
| LBP (lipopolysaccharide binding protein) | SID315449736 | -0.24 | inactive |
| LBP (lipopolysaccharide binding protein) | SID315449736 | 0.33 | inactive |
| PGAP6 (post-GPI attachment to proteins 6) | SID315458664 | 0.01 | inactive |
| PGAP6 (post-GPI attachment to proteins 6) | SID315458664 | -0.39 | inactive |
| PGAP6 (post-GPI attachment to proteins 6) | SID315458664 | -0.49 | inactive |
| PGAP6 (post-GPI attachment to proteins 6) | SID315458664 | 0.48 | inactive |
| FAIM (Fas apoptotic inhibitory molecule) | SID315457471 | -0.08 | inactive |
| FAIM (Fas apoptotic inhibitory molecule) | SID315457471 | 1.73 | inactive |
| FAIM (Fas apoptotic inhibitory molecule) | SID315457471 | 0.28 | inactive |
| FAIM (Fas apoptotic inhibitory molecule) | SID315457471 | -0.31 | inactive |
| HPS6 (HPS6 biogenesis of lysosomal organelles complex 2 subunit 3) | SID315459472 | -0.31 | inactive |
| HPS6 (HPS6 biogenesis of lysosomal organelles complex 2 subunit 3) | SID315459472 | -0.6 | inactive |
| HPS6 (HPS6 biogenesis of lysosomal organelles complex 2 subunit 3) | SID315459472 | -0.78 | inactive |
| HPS6 (HPS6 biogenesis of lysosomal organelles complex 2 subunit 3) | SID315459472 | 1.22 | inactive |
| YAP1 (Yes1 associated transcriptional regulator) | SID315454068 | -1.27 | inactive |
| YAP1 (Yes1 associated transcriptional regulator) | SID315454068 | -0.96 | inactive |
| YAP1 (Yes1 associated transcriptional regulator) | SID315454068 | -0.82 | inactive |
| YAP1 (Yes1 associated transcriptional regulator) | SID315454068 | -1.19 | inactive |
| USP21 (ubiquitin specific peptidase 21) | SID315455874 | -0.49 | inactive |
| USP21 (ubiquitin specific peptidase 21) | SID315455874 | 0.03 | inactive |
| USP21 (ubiquitin specific peptidase 21) | SID315455874 | 0.97 | inactive |
| USP21 (ubiquitin specific peptidase 21) | SID315455874 | 0.54 | inactive |
| NUMB (NUMB endocytic adaptor protein) | SID315452717 | 2.36 | inactive |
| NUMB (NUMB endocytic adaptor protein) | SID315452717 | 2.62 | inactive |
| NUMB (NUMB endocytic adaptor protein) | SID315452717 | 0.41 | inactive |
| NUMB (NUMB endocytic adaptor protein) | SID315452717 | 2.37 | inactive |
| HOXA1 (homeobox A1) | SID315449264 | 0.03 | inactive |
| HOXA1 (homeobox A1) | SID315449264 | -1.32 | inactive |
| HOXA1 (homeobox A1) | SID315449264 | -1.46 | inactive |
| HOXA1 (homeobox A1) | SID315449264 | -1.25 | inactive |
| CAMSAP1 (calmodulin regulated spectrin associated protein 1) | SID315462640 | -0.07 | inactive |
| CAMSAP1 (calmodulin regulated spectrin associated protein 1) | SID315462640 | 0.29 | inactive |
| CAMSAP1 (calmodulin regulated spectrin associated protein 1) | SID315462640 | -0.01 | inactive |
| CAMSAP1 (calmodulin regulated spectrin associated protein 1) | SID315462640 | 1.06 | inactive |
| UGT1A7 (UDP glucuronosyltransferase family 1 member A7) | SID315457088 | -0.25 | inactive |
| UGT1A7 (UDP glucuronosyltransferase family 1 member A7) | SID315457088 | -0.12 | inactive |
| UGT1A7 (UDP glucuronosyltransferase family 1 member A7) | SID315457088 | 0.08 | inactive |
| UGT1A7 (UDP glucuronosyltransferase family 1 member A7) | SID315457088 | -0.43 | inactive |
| F2RL1 (F2R like trypsin receptor 1) | SID315448601 | 0.49 | inactive |
| F2RL1 (F2R like trypsin receptor 1) | SID315448601 | 0.77 | inactive |
| F2RL1 (F2R like trypsin receptor 1) | SID315448601 | 0.72 | inactive |
| F2RL1 (F2R like trypsin receptor 1) | SID315448601 | 1.62 | inactive |
| ASCL2 (achaete-scute family bHLH transcription factor 2) | SID315447425 | -0.25 | inactive |
| ASCL2 (achaete-scute family bHLH transcription factor 2) | SID315447425 | 1.1 | inactive |
| ASCL2 (achaete-scute family bHLH transcription factor 2) | SID315447425 | 0.65 | inactive |
| ASCL2 (achaete-scute family bHLH transcription factor 2) | SID315447425 | -0.87 | inactive |
| SPIB (Spi-B transcription factor) | SID315451602 | -0.26 | inactive |
| SPIB (Spi-B transcription factor) | SID315451602 | -0.5 | inactive |
| SPIB (Spi-B transcription factor) | SID315451602 | -0.16 | inactive |
| SPIB (Spi-B transcription factor) | SID315451602 | -0.21 | inactive |
| ANXA4 (annexin A4) | SID315447324 | -1.13 | inactive |
| ANXA4 (annexin A4) | SID315447324 | -0.14 | inactive |
| ANXA4 (annexin A4) | SID315447324 | 0.65 | inactive |
| ANXA4 (annexin A4) | SID315447324 | -0.06 | inactive |
| INPP4B (inositol polyphosphate-4-phosphatase type II B) | SID315452849 | -1.25 | inactive |
| INPP4B (inositol polyphosphate-4-phosphatase type II B) | SID315452849 | 0.34 | inactive |
| INPP4B (inositol polyphosphate-4-phosphatase type II B) | SID315452849 | -0.27 | inactive |
| INPP4B (inositol polyphosphate-4-phosphatase type II B) | SID315452849 | -1.32 | inactive |
| RHCE (Rh blood group CcEe antigens) | SID315451127 | -0.65 | inactive |
| RHCE (Rh blood group CcEe antigens) | SID315451127 | -1.02 | inactive |
| RHCE (Rh blood group CcEe antigens) | SID315451127 | -0.46 | inactive |
| RHCE (Rh blood group CcEe antigens) | SID315451127 | -0.59 | inactive |
| PHLDB2 (pleckstrin homology like domain family B member 2) | SID315460781 | -0.35 | inactive |
| PHLDB2 (pleckstrin homology like domain family B member 2) | SID315460781 | -0.9 | inactive |
| PHLDB2 (pleckstrin homology like domain family B member 2) | SID315460781 | 1.29 | inactive |
| PHLDB2 (pleckstrin homology like domain family B member 2) | SID315460781 | -0.27 | inactive |
| HOMER2 (homer scaffold protein 2) | SID315453299 | 0.74 | inactive |
| HOMER2 (homer scaffold protein 2) | SID315453299 | 0.91 | inactive |
| HOMER2 (homer scaffold protein 2) | SID315453299 | 0.05 | inactive |
| HOMER2 (homer scaffold protein 2) | SID315453299 | -0.24 | inactive |
| ACTRT3 (actin related protein T3) | SID315460387 | -0.63 | inactive |
| ACTRT3 (actin related protein T3) | SID315460387 | 0 | inactive |
| ACTRT3 (actin related protein T3) | SID315460387 | 0.24 | inactive |
| ACTRT3 (actin related protein T3) | SID315460387 | -0.49 | inactive |
| PHLDA1 (pleckstrin homology like domain family A member 1) | SID315454795 | -0.38 | inactive |
| PHLDA1 (pleckstrin homology like domain family A member 1) | SID315454795 | 0.68 | inactive |
| PHLDA1 (pleckstrin homology like domain family A member 1) | SID315454795 | 2.95 | active |
| PHLDA1 (pleckstrin homology like domain family A member 1) | SID315454795 | 0.65 | inactive |
| OR2T33 (olfactory receptor family 2 subfamily T member 33) | SID315464684 | 0.5 | inactive |
| OR2T33 (olfactory receptor family 2 subfamily T member 33) | SID315464684 | 3.87 | active |
| OR2T33 (olfactory receptor family 2 subfamily T member 33) | SID315464684 | 0.34 | inactive |
| OR2T33 (olfactory receptor family 2 subfamily T member 33) | SID315464684 | -0.12 | inactive |
| WDR70 (WD repeat domain 70) | SID315457404 | 1.02 | inactive |
| WDR70 (WD repeat domain 70) | SID315457404 | -0.45 | inactive |
| WDR70 (WD repeat domain 70) | SID315457404 | -0.89 | inactive |
| WDR70 (WD repeat domain 70) | SID315457404 | 0 | inactive |
| DNAJC1 (DnaJ heat shock protein family (Hsp40) member C1) | SID315458867 | -0.58 | inactive |
| DNAJC1 (DnaJ heat shock protein family (Hsp40) member C1) | SID315458867 | -0.91 | inactive |
| DNAJC1 (DnaJ heat shock protein family (Hsp40) member C1) | SID315458867 | -0.95 | inactive |
| DNAJC1 (DnaJ heat shock protein family (Hsp40) member C1) | SID315458867 | -0.45 | inactive |
| SULT1C4 (sulfotransferase family 1C member 4) | SID315455981 | 0.01 | inactive |
| SULT1C4 (sulfotransferase family 1C member 4) | SID315455981 | 0.41 | inactive |
| SULT1C4 (sulfotransferase family 1C member 4) | SID315455981 | -0.05 | inactive |
| SULT1C4 (sulfotransferase family 1C member 4) | SID315455981 | 0.43 | inactive |
| RAD18 (RAD18 E3 ubiquitin protein ligase) | SID315458127 | 0.28 | inactive |
| RAD18 (RAD18 E3 ubiquitin protein ligase) | SID315458127 | 0.91 | inactive |
| RAD18 (RAD18 E3 ubiquitin protein ligase) | SID315458127 | -0.08 | inactive |
| RAD18 (RAD18 E3 ubiquitin protein ligase) | SID315458127 | 0.16 | inactive |
